In article PMC8320060:
No constants are given. Whether binding was seen depends on the method and setting. Binding seen in cells or lysates may run through a third protein. Some results given as binding are weak or reduced against the parent protein; the word gives no strength. Sequences can lack the tags named with a protein.

Sequences of proteins named here, by UniProt entry; tags and fusion partners are left off.
UniProt P60953: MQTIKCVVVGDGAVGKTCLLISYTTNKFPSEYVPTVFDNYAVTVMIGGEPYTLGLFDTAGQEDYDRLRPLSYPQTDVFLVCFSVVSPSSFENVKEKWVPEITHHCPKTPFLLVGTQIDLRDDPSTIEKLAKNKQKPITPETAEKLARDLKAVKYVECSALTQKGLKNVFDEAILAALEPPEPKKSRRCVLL
UniProt P61586: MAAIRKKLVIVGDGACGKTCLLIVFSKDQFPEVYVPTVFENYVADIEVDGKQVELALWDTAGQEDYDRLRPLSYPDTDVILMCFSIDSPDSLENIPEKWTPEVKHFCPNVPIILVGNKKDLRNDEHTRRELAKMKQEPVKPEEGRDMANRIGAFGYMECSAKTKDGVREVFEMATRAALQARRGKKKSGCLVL

Experiments:
[1] = biological target: T1, RHOGDIA-FLAG (from pcDNA3.1-RHOGDIA) (UniProt P52565); assay: co-IP; A549 and Calu-1 cells co-transfected with HHEX siRNA (or control) and pcDNA3.1-RHOGDIA; lysate immunoprecipitated with anti-FLAG antibody; western blot
T1 sequence: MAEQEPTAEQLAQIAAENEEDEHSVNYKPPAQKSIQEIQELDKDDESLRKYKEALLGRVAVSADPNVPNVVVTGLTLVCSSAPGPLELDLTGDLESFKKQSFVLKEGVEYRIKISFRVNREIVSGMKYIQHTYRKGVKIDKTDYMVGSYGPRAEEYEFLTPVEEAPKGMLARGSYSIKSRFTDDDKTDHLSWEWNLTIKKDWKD

[2] = biological target: T2, Hhex-HA (human hematopoietically expressed homeobox, from pcDNA3.1-HHEX-HA) (human) (UniProt Q03014); assay: co-IP; HEK 293T cells co-transfected with pcDNA3.1-HHEX-HA, pcDNA3.1-RHOGDIA-FLAG and pcDNA3.1-RHOA-MYC or pcDNA3.1-CDC42-MYC; lysate immunoprecipitated with anti-HA antibody; western blot
T2 sequence: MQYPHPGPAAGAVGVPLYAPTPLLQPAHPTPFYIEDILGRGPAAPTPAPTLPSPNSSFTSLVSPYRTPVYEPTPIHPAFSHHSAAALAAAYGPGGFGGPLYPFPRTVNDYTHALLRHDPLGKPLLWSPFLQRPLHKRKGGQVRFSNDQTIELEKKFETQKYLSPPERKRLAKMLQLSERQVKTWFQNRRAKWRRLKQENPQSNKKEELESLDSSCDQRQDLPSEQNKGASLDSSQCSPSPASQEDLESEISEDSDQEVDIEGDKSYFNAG

[3] = biological target: T2, Hhex-HA (human hematopoietically expressed homeobox, from pcDNA3.1-HHEX-HA) (human); assay: co-IP; 293FT cells co-transfected with pcDNA3.1-HHEX-HA and pcDNA3.1-RHOA-MYC or pcDNA3.1-CDC42-MYC; lysate immunoprecipitated with anti-HA or anti-MYC antibody; western blot

binding [1]	binding [2]	binding [3]	Substance
binds			CDC42, endogenous in A549 and Calu-1 cells (from UniProt P60953 1-191)
	binds	binds	RHOA-MYC (from pcDNA3.1-RHOA-MYC) (from UniProt P61586 1-193)
binds			RHOA, endogenous in A549 and Calu-1 cells (from UniProt P61586 1-193)
	binds	binds	CDC42-MYC (from pcDNA3.1-CDC42-MYC) (from UniProt P60953 1-191)
